The source of these data is paper PMC9686928, “10-mer and 9-mer WALK Peptides with Both Antibacterial and Anti-Inflammatory Activities” (Antibiotics, 2022).

The test system of the data set is human red blood cells. The following applies: TI’ = MHC/GM.

Where no end group is shown, it is not given here. Some results are limits rather than exact numbers.

Take KLLKWLKKWL-NH2 [WALK244.05]: the “pseudo-therapeutic index (TI’)” value was > 10.
The same measure for KWLLKWLKKL-NH2 [WALK244.02]: > 10; for LKKWLKWLLK-NH2 [WALK244.07]: > 10.
As to LLKWLKKWLK-NH2 [WALK244.04], the “pseudo-therapeutic index (TI’)” value is on record as > 10.
